Patent publication EP1780277A1
Results are given in words; binding and its absence hold for the method and conditions named. Some entries that bind do so weakly or less than the wild type. Tags and fused reporters may be left off the sequences shown.

Sequences of proteins named here, by UniProt entry; tags and fusion partners are left off. A change or cut given only in a name is not applied to a line headed by its entry.
UniProt P04386: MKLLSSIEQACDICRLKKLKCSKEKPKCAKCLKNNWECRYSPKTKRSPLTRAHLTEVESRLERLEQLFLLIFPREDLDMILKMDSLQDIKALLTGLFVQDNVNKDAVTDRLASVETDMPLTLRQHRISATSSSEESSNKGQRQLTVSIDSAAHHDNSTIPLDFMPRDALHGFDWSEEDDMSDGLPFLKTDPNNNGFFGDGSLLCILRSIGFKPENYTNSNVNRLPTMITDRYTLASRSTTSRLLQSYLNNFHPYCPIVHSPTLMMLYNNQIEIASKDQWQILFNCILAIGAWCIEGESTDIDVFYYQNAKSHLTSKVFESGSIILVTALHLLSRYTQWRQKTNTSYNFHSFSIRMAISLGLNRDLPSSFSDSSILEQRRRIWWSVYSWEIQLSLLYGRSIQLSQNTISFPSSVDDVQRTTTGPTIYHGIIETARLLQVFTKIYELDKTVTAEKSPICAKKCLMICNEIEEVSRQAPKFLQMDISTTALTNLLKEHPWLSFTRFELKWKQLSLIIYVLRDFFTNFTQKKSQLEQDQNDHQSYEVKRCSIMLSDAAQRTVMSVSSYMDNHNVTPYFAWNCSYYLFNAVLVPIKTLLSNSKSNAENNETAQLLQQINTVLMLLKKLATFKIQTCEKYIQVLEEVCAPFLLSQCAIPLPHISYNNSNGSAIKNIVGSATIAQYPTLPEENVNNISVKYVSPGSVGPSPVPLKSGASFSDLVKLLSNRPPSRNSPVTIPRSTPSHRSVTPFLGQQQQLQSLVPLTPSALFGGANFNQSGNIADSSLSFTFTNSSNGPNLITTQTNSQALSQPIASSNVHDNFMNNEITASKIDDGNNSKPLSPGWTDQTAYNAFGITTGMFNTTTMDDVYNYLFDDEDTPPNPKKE
UniProt P17181: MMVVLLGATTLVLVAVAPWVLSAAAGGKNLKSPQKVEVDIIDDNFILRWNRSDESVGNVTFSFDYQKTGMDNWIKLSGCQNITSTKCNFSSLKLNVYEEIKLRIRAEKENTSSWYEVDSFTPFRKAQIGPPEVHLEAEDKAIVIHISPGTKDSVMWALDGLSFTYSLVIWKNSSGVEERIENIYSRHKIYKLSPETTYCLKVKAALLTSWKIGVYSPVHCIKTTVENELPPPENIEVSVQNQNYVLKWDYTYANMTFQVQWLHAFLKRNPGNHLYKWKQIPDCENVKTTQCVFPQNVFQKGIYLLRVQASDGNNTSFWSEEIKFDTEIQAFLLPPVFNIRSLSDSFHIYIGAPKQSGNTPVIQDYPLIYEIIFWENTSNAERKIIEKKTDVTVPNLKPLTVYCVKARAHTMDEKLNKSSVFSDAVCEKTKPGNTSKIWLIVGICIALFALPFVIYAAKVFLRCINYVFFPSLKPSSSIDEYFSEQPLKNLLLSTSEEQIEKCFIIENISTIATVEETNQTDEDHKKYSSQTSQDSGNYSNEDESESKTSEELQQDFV

Experiments:
[1] = molecular target: T1, IFNAR1-IC domain fused to the Gal4 DNA-binding domain (pGBT10-IFNAR1-IC) (human) (UniProt P04386+P17181); experiment: yeast two-hybrid
[2] = molecular target: T1, IFNAR1-IC domain fused to the Gal4 DNA-binding domain (pGBT10-IFNAR1-IC) (human); experiment: yeast two-hybrid in SFY526
[3] = molecular target: T1, IFNAR1-IC domain fused to the Gal4 DNA-binding domain (pGBT10-IFNAR1-IC) (human); experiment: yeast two-hybrid in SFY526, X-gal staining positive in streak 2

binding [1]: binds
binding [2]: binds
binding [3]: binds
B1: IR1B1 fused to the Gal4 activation domain (pACT clone IR1B1) (protein, not shown: large carriers)
chain: MGGSGSRLSKELLAEYQDLTFLTKQEILLAHRRFCELLPQEQRSVESSLRAQVPFEQILSLPELKANPFKERICRVFSTSPAKDSLSFEDFLDLLSVFSDTATPDIKSHYAFRIFDFDDDGTLNREDLSRLVNCLTGEGEDTRLSASEMKQLIDYILEESDIDRDGTINLSEFQHVISRSPDFASSFKIVL
